Results reported in patent publication US20090099062A1 (priority 2007, published 2009).
For at least one compound, name, drawing or mass did not settle the structure.

Key:
[1] = tested on: mouse Axin-Renilla-luciferase; assay: Xenopus egg extract Wnt pathway screen, Axin-Renilla luciferase signal; type: biochemical; details: initial small molecule screen, LRP6-intracellular domain added, 4 hr
[2] = tested on: human β-catenin-luciferase (firefly); assay: Xenopus egg extract Wnt pathway screen, β-catenin-firefly luciferase signal; type: biochemical; details: initial small molecule screen, LRP6-intracellular domain added, 4 hr

## Cc1cc(/C=C/c2ccc3cc(N(C)C)ccc3[n+]2C)c(C)n1-c1ccccc1 [pyrvinium, pyrvinium pamoate]
[1]
  Axin-Renilla luciferase signal: enhanced
[2]
  β-catenin-firefly luciferase signal: decreased
